# Reference: the supplement of paper PMC8728848
# This is one part of the list.
# B1: DC-Sign-R (Homo sapiens), Q9H2X3 (protein)
# chain: MSDSKEPRVQQLGLLEEDPTTSGIRLFPRDFQFQQIHGHKSSTGCLGHGALVLQLLSFMLLAGVLVAILVQVSKVPSSLSQEQSEQDAIYQNLTQLKAAVGELSEKSKLQEIYQELTQLKAAVGELPEKSKLQEIYQELTRLKAAVGELPEKSKLQEIYQELTRLKAAVGELPEKSKLQEIYQELTRLKAAVGELPEKSKLQEIYQELTELKAAVGELPEKSKLQEIYQELTQLKAAVGELPDQSKQQQIYQELTDLKTAFERLCRHCPKDWTFFQGNCYFMSNSQRNWHDSVTACQEVRAQLVVIKTAEEQNFLQLQTSRSNRFSWMGLSDLNQEGTWQWVDGSPLSPSFQRYWNSGEPNNSGNEDCAEFSGSGWNDNRCDVDNYWICKKPAACFRDE
# What was measured:
# Assay in all cases: glycan array binding signal (z-score within array); higher = stronger binding
# Conditions in all cases: glycan notation: IUPAC condensed, linker removed
# [1] = biological target: Fuc(a1-2)[Gal(a1-3)]Gal(b1-4)GlcNAc(b1-2)Man(a1-3)[Fuc(a1-2)[Gal(a1-3)]Gal(b1-4)GlcNAc(b1-2)Man(a1-6)]Man(b1-4)GlcNAc(b1-4)GlcNAc
# In short: (§1)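 Arrays were curated from the Consortium for Functional Glycomics database, 3228 in total, and kept only where the protein sequence was available. Binding is expressed as a within-array Z-score. This score was averaged across arrays of the same protein sequence at different concentrations or buffers and across linkers, and negative values can be read as non-binding.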
# [2] = biological target: Fuc(a1-2)[Gal(a1-3)]Gal(b1-4)GlcNAc(b1-2)Man(a1-3)[Fuc(a1-2)[Gal(a1-3)]Gal(b1-4)GlcNAc(b1-2)Man(a1-6)]Man(b1-4)GlcNAc(b1-4)[Fuc(a1-6)]GlcNAc
# In short: as §1
# [3] = biological target: Fuc(a1-2)[Gal(a1-3)]Gal(b1-4)GlcNAc(b1-3)GalNAc
# In short: as §1
# [4] = biological target: Fuc(a1-2)[Gal(a1-3)]Gal(b1-4)GlcNAc(b1-3)[Fuc(a1-2)[Gal(a1-3)]Gal(b1-4)GlcNAc(b1-6)]GalNAc
# In short: as §1
# [5] = biological target: Fuc(a1-2)[Gal(a1-3)]Gal(b1-4)GlcNAc(b1-6)GalNAc
# In short: as §1
# [6] = biological target: Fuc(a1-2)[Gal(a1-3)]Gal(b1-4)[Fuc(a1-3)]Glc
# In short: as §1
# [7] = biological target: Fuc(a1-2)[Gal(a1-3)]Gal(b1-4)[Fuc(a1-3)]GlcNAc
# In short: as §1
# [8] = biological target: Fuc(a1-2)[Gal(a1-3)]Gal(b1-4)[Fuc(a1-3)]GlcNAc(b1-3)GalNAc
# In short: as §1
# [9] = biological target: Fuc(a1-2)[Gal(a1-4)]Gal(b1-4)GlcNAc
# In short: as §1
# [10] = biological target: Fuc(a1-2)[GalNAc(a1-3)]Gal
# In short: as §1
# [11] = biological target: Fuc(a1-2)[GalNAc(a1-3)]Gal(b1-3)GalNAc(a1-3)[Fuc(a1-2)]Gal(b1-4)GlcNAc
# In short: as §1
# [12] = biological target: Fuc(a1-2)[GalNAc(a1-3)]Gal(b1-3)GalNAc(b1-3)Gal(a1-4)Gal(b1-4)Glc
# In short: as §1
# [13] = biological target: Fuc(a1-2)[GalNAc(a1-3)]Gal(b1-3)GlcNAc
# In short: as §1
# [14] = biological target: Fuc(a1-2)[GalNAc(a1-3)]Gal(b1-3)GlcNAc(b1-2)Man(a1-3)[Fuc(a1-2)[GalNAc(a1-3)]Gal(b1-3)GlcNAc(b1-2)Man(a1-6)]Man(b1-4)GlcNAc(b1-4)GlcNAc
# In short: as §1
# [15] = biological target: Fuc(a1-2)[GalNAc(a1-3)]Gal(b1-3)GlcNAc(b1-2)Man(a1-3)[Fuc(a1-2)[GalNAc(a1-3)]Gal(b1-3)GlcNAc(b1-2)Man(a1-6)]Man(b1-4)GlcNAc(b1-4)[Fuc(a1-6)]GlcNAc
# In short: as §1
# [16] = biological target: Fuc(a1-2)[GalNAc(a1-3)]Gal(b1-3)GlcNAc(b1-3)GalNAc
# In short: as §1
# [17] = biological target: Fuc(a1-2)[GalNAc(a1-3)]Gal(b1-3)GlcNAc(b1-6)GalNAc
# In short: as §1
# [18] = biological target: Fuc(a1-2)[GalNAc(a1-3)]Gal(b1-4)Glc
# In short: as §1
# [19] = biological target: Fuc(a1-2)[GalNAc(a1-3)]Gal(b1-4)GlcNAc
# In short: as §1
# [20] = biological target: Fuc(a1-2)[GalNAc(a1-3)]Gal(b1-4)GlcNAc(b1-2)Man
# In short: as §1
# [21] = biological target: Fuc(a1-2)[GalNAc(a1-3)]Gal(b1-4)GlcNAc(b1-2)Man(a1-3)[Fuc(a1-2)[GalNAc(a1-3)]Gal(b1-4)GlcNAc(b1-2)Man(a1-6)]Man(b1-4)GlcNAc(b1-4)GlcNAc
# In short: as §1
# [22] = biological target: Fuc(a1-2)[GalNAc(a1-3)]Gal(b1-4)GlcNAc(b1-2)Man(a1-3)[Fuc(a1-2)[GalNAc(a1-3)]Gal(b1-4)GlcNAc(b1-2)Man(a1-6)]Man(b1-4)GlcNAc(b1-4)[Fuc(a1-6)]GlcNAc
# In short: as §1
# [23] = biological target: Fuc(a1-2)[GalNAc(a1-3)]Gal(b1-4)GlcNAc(b1-3)Gal(b1-4)GlcNAc
# In short: as §1
# [24] = biological target: Fuc(a1-2)[GalNAc(a1-3)]Gal(b1-4)GlcNAc(b1-3)Gal(b1-4)GlcNAc(b1-3)Gal(b1-4)GlcNAc
# In short: as §1
# [25] = biological target: Fuc(a1-2)[GalNAc(a1-3)]Gal(b1-4)GlcNAc(b1-3)GalNAc
# In short: as §1
# [26] = biological target: Fuc(a1-2)[GalNAc(a1-3)]Gal(b1-4)GlcNAc(b1-3)[Fuc(a1-2)[GalNAc(a1-3)]Gal(b1-4)GlcNAc(b1-6)]GalNAc
# In short: as §1
# [27] = biological target: Fuc(a1-2)[GalNAc(a1-3)]Gal(b1-4)GlcNAc(b1-6)GalNAc
# In short: as §1
# [28] = biological target: Fuc(a1-2)[GalNAc(a1-3)]Gal(b1-4)[Fuc(a1-3)]GlcNAc
# In short: as §1
# [29] = biological target: Fuc(a1-2)[GalNAc(a1-3)]Gal(b1-4)[Fuc(a1-3)]GlcNAc(b1-3)GalNAc
# In short: as §1
# [30] = biological target: Fuc(a1-2)[GalNAc(a1-4)]Gal(b1-4)GlcNAc
# In short: as §1
binder,measurement,setting,value
B1,glycan array binding signal (z-score),[1],-0.786
same,glycan array binding signal (z-score),[2],-0.844
same,glycan array binding signal (z-score),[3],0.16
same,glycan array binding signal (z-score),[4],-0.4
same,glycan array binding signal (z-score),[5],-0.338
same,glycan array binding signal (z-score),[6],-0.545
same,glycan array binding signal (z-score),[7],0.112
same,glycan array binding signal (z-score),[8],-0.628
same,glycan array binding signal (z-score),[9],-0.105
same,glycan array binding signal (z-score),[10],0.758
same,glycan array binding signal (z-score),[11],-0.817
same,glycan array binding signal (z-score),[12],0.392
same,glycan array binding signal (z-score),[13],-0.339
same,glycan array binding signal (z-score),[14],-0.748
same,glycan array binding signal (z-score),[15],-0.011
same,glycan array binding signal (z-score),[16],0.384
same,glycan array binding signal (z-score),[17],-0.277
same,glycan array binding signal (z-score),[18],2.29
same,glycan array binding signal (z-score),[19],1.53
same,glycan array binding signal (z-score),[20],0.296
same,glycan array binding signal (z-score),[21],-0.72
same,glycan array binding signal (z-score),[22],-0.671
same,glycan array binding signal (z-score),[23],0.606
same,glycan array binding signal (z-score),[24],0.606
same,glycan array binding signal (z-score),[25],-0.257
same,glycan array binding signal (z-score),[26],-0.812
same,glycan array binding signal (z-score),[27],0.433
same,glycan array binding signal (z-score),[28],0.544
same,glycan array binding signal (z-score),[29],0.721
same,glycan array binding signal (z-score),[30],0.012

# Rewritten bar-delimited: part of the list above
binder | measurement | setting | value
B1 | glycan array binding signal (z-score) | [21] | -0.72
same | glycan array binding signal (z-score) | [22] | -0.671
